Data: article PMC4053355
No constants are given. Whether binding was seen depends on the method and setting. In cells and extracts the contact can be indirect. Some results given as binding are weak or reduced against the parent protein; the word gives no strength.

Sequences of proteins named here, by UniProt entry; tags and fusion partners are left off.
UniProt Q15643: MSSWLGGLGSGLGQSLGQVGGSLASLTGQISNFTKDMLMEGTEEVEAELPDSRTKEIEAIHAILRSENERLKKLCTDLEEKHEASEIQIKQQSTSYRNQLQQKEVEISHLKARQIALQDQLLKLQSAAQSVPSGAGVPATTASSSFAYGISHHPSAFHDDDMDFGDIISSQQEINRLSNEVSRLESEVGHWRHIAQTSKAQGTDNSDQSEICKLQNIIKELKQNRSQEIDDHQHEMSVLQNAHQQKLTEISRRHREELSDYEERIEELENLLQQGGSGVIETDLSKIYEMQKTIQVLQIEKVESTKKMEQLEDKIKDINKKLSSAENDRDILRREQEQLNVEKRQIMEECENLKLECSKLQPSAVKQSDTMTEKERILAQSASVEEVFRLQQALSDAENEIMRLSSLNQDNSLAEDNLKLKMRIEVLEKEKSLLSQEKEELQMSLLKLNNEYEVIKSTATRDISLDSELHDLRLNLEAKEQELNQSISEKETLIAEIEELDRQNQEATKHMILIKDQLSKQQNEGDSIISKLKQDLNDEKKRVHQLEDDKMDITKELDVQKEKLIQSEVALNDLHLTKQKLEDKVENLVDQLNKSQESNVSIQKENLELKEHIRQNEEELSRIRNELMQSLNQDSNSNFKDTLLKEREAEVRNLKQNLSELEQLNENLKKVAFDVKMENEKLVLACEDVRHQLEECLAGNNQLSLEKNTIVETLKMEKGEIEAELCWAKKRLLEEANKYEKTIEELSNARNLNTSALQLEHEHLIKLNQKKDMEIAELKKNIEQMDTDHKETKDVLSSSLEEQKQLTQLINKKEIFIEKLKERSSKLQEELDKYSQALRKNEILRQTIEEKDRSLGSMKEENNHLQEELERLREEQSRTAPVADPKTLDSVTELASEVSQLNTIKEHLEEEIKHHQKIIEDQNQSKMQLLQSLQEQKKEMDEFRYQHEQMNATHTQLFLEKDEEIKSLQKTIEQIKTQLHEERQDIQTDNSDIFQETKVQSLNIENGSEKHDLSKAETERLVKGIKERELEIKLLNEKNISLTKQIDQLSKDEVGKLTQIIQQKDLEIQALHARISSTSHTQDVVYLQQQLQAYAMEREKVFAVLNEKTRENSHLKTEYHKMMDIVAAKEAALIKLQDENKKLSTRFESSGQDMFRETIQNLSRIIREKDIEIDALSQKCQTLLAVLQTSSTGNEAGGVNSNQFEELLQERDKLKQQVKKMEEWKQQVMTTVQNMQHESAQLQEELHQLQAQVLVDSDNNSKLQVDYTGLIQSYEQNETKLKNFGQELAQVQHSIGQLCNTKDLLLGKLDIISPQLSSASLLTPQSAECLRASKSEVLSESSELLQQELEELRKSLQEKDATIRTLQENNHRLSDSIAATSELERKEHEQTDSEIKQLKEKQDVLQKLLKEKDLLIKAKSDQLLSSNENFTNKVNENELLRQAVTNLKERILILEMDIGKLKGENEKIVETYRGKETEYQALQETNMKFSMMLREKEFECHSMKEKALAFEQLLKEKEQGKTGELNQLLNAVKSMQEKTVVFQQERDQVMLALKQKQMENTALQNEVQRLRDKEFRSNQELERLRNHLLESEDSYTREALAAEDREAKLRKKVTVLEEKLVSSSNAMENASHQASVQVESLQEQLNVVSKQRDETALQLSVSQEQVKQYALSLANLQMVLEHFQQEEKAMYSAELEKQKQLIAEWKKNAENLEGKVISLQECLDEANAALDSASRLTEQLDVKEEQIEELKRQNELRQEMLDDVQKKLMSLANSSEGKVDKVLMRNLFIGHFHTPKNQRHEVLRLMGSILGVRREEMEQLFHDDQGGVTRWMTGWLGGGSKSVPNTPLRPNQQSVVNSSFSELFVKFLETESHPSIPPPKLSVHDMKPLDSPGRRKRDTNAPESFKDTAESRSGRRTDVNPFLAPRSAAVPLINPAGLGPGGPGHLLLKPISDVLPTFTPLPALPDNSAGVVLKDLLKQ

Target: thyroid hormone receptor/retinoblastoma-interacting protein-230 (TRIP230) (human (endogenous in MCF7)) (UniProt Q15643)
Assay: co-IP; about 1 mg nuclear extract of MCF7 cells kept in 1% O2 for 6 h, 5 µg anti-TRIP230 mouse IgG or control mouse IgG, 4°C 90 min, Protein-G sepharose; immuno-blot for TRIP230, ARNT and Rb

B1: retinoblastoma protein (Rb) (protein, UniProt P06400 1-928)
chain: MPPKTPRKTAATAAAAAAEPPAPPPPPPPEEDPEQDSGPEDLPLVRLEFEETEEPDFTALCQKLKIPDHVRERAWLTWEKVSSVDGVLGGYIQKKKELWGICIFIAAVDLDEMSFTFTELQKNIEISVHKFFNLLKEIDTSTKVDNAMSRLLKKYDVLFALFSKLERTCELIYLTQPSSSISTEINSALVLKVSWITFLLAKGEVLQMEDDLVISFQLMLCVLDYFIKLSPPMLLKEPYKTAVIPINGSPRTPRRGQNRSARIAKQLENDTRIIEVLCKEHECNIDEVKNVYFKNFIPFMNSLGLVTSNGLPEVENLSKRYEEIYLKNKDLDARLFLDHDKTLQTDSIDSFETQRTPRKSNLDEEVNVIPPHTPVRTVMNTIQQLMMILNSASDQPSENLISYFNNCTVNPKESILKRVKDIGYIFKEKFAKAVGQGCVEIGSQRYKLGVRLYYRVMESMLKSEEERLSIQNFSKLLNDNIFHMSLLACALEVVMATYSRSTSQNLDSGTDLSFPWILNVLNLKAFDFYKVIESFIKAEGNLTREMIKHLERCEHRIMESLAWLSDSPLFDLIKQSKDREGPTDHLESACPLNLPLQNNHTAADMYLSPVRSPKKKGSTTRVNSTANAETQATSAFQTQKPLKSTSLSLFYKKVYRLAYLRLNTLCERLLSEHPELEHIIWTLFQHTLQNEYELMRDRHLDQIMMCSMYGICKVKNIDLKFKIIVTAYKDLPHAVQETFKRVLIKEEEYDSIIVFYNSVFMQRLKTNILQYASTRPPTLSPIPHIPRSPYKFPSSPLRIPGGNIYISPLKSPYKISEGLPTPTKMTPRSRILVSIGESFGTSEKFQKINQMVCNSDRVLKRSAEGSNPPKPLKKLRFDIEGSDEADGSKHLPGESKFQQKLAEMTSTRTRMQKQKMNDSMDTSNKEEK
For B1, the binding was “binds”.
